# Percent effect of library compounds

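Assay of Toxoplasma gondii numbers, read through their beta-galactosidase reporter with a colour substrate. Concentration: 50 µM. The record gives no direction; the compounds picked for IC50 retests had high values, so higher reads as fewer parasites. Of about 18,000 compounds tested this way, about 170 (0.94%) reached 50% or more in at least one test.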

Each number is a percent effect as filed.
How 0% and 100% were set is not recorded. Most values in the screen are low, and negative values occur.
Compounds were drawn at random from those tested, without regard to their results.

structure: Cc1ccc(S(=O)(=O)CCC(=O)NC(N)=O)cc1
effect: -1.316

structure: COC(=O)c1ccc(NC(=O)CCn2cnnn2)cc1
effect: -7.157

structure: CCC(N)C(=O)N(CC)Cc1ccoc1 (stereo not drawn)
effect: -0.2508

structure: CCc1sc(C(=O)OCC(=O)N2CCNC2=O)cc1C
effect: 31.02

structure: CS(=O)(=O)CCSCc1ccn(-c2ccc(F)cc2)n1
effect: -3.886

structure: COC(=O)NC(C)C(=O)N1CCc2[nH]cnc2C1 (stereo not drawn)
effect: -17.64

structure: O=S(=O)(C1CCCNC1)N1CCc2ccccc21 (stereo not drawn)
effect: 4.023

structure: Cc1cc(CNC(=O)N2CCC(CC(N)=O)CC2)no1
effect: -1.018

structure: COC(=O)c1cncc(C(=O)NCCc2ccsc2)c1
effect: 15.63

structure: C[C@@H]1CCNC[C@@H]1N
effect: -1.519

structure: COC(=O)CCc1nnc(N)s1
effect: -6.44

structure: O=C(NCc1cn2ccccc2n1)C1CC1
effect: -11.68

structure: CNCC(=O)Nc1ccc(F)cc1
effect: -15.27

structure: CCNC(=O)C1CCCN(c2ccncc2Cl)C1 (stereo not drawn)
effect: -2.579

structure: CC1Sc2ccc(C(=O)N(C)C)cc2NC1=O (stereo not drawn)
effect: -6.489

structure: NCCC1CN(C(=O)Cc2cccc(Cl)c2)CCO1 (stereo not drawn)
effect: -9.318

structure: COCC(=O)N1CCN(C(C)C(=O)NC(C)(C)C)CC1 (stereo not drawn)
effect: 9.382

structure: Cc1nn(C)c(Cl)c1CN1CCCC1CS(N)(=O)=O (stereo not drawn)
effect: 17.08

structure: CN(C)c1ncccc1CNC(=O)C1CCS(=O)(=O)C1 (stereo not drawn)
effect: 3.789

structure: CCc1nc(N)nc(NCC(O)CN(C)C)c1C (stereo not drawn)
effect: -6.582

structure: O=C(c1ccccn1)N1CCN(C(=O)C2CC2)CC1
effect: -1.439

structure: CCC1CN(C2=NS(=O)(=O)c3ccccc32)CCO1 (stereo not drawn)
effect: -7.512

structure: CCN(CC)C(=O)c1ccc(N2CCOCC2)cc1
effect: -9.706

structure: Cc1ccc2c(c1)OC(C)C(=O)N2 (stereo not drawn)
effect: -6.674

structure: NC1(C2CC2)CCOCC1
effect: 6.962

structure: CC[C@H](C)[C@H](N)C(=O)NC
effect: -8.555

structure: CCOc1cccc(Cn2cnc(CC)cc2=O)n1
effect: -7.609

structure: O=S1(=O)CC(CO)c2ccccc21 (stereo not drawn)
effect: -5.873

structure: COc1ccc2c(c1)CN(C(=O)c1ccccn1)CC2
effect: 1.921

structure: NCc1ccc(C(N)=O)cc1
effect: -3.679

structure: COC1CCN(C(=O)Cc2ccc(N(C)C)cc2)C1 (stereo not drawn)
effect: 11.51

structure: O=C(NC1CCCCC12OCCO2)c1ccco1 (stereo not drawn)
effect: -8.609

structure: CN1CCN(C(=O)CC2Cc3ccccc3C2)CC1
effect: 19

structure: Cc1nccnc1N1CCNCC1
effect: 7.626

structure: Cc1cc(C)c(CN2CCOC(CN)C2)cc1C (stereo not drawn)
effect: -3.964

structure: CC(=O)N(CC(=O)N1CCCCC1)c1ccc(C)cc1
effect: -0.3677

structure: Cn1cnnc1C1CCN(CC2CCCOC2)CC1 (stereo not drawn)
effect: 2.345

structure: CSCc1ccc(C(=O)N2CC(CC(N)=O)C2)cc1
effect: -6.52

structure: COc1cc(Cl)ccc1C(=O)N[C@@H]1CCNC[C@H]1O
effect: -10.08

structure: CNC(=O)CN(C)C(=O)c1cnn(-c2ccccc2)c1
effect: 1.352

structure: NCC(NC(=O)c1ccccc1C(F)(F)F)C1CC1 (stereo not drawn)
effect: -7.499

structure: CSC(C)C(=O)N1CCOC(C)(C)C1 (stereo not drawn)
effect: -11.39

structure: O=c1ccoc2ccc(F)cc12
effect: 22.77

structure: COc1ccccc1CNc1ccc(C#N)cn1
effect: 23.38

structure: CC(N)C(=O)Nc1ccc(-n2cncn2)cc1 (stereo not drawn)
effect: 2.278

structure: Cc1cc(C2CCCN2)no1 (stereo not drawn)
effect: -6.252

structure: CCOC(=O)CSc1ncc(C#N)c(N)n1
effect: -11.8

structure: CN(C)CCOC1CCNC1 (stereo not drawn)
effect: 0.3152

structure: Cc1ccccc1NC(=O)N1CCN(CC(N)=O)CC1
effect: 16.3

structure: CN1CC2(CCCN(CCn3cc(Cl)cn3)C2)OC1=O (stereo not drawn)
effect: 6.219

structure: OCc1cc2ccccc2nc1N1CCSCC1
effect: 44.32

structure: O=C(CCN1CCC(C(F)(F)F)CC1)N1CCOCC1
effect: 13.61

structure: Cc1cccc(S(=O)(=O)N(C)C(C)CN)c1C#N (stereo not drawn)
effect: 21.84

structure: Cc1cccc(NC(=O)CCc2ccco2)n1
effect: -4.769

structure: CCC(C)(C)NC(=O)CNc1ccc2c(c1)OCCO2
effect: 4.061

structure: CCc1nc(CN2CCCNCC2)no1
effect: -24.67

structure: Cc1ccc(CNC(=O)NCC(C)(C)CC(C)O)cn1 (stereo not drawn)
effect: -19.98

structure: COC(=O)COCC(C)=O
effect: -27.54

structure: Cc1ccc(F)c(S(=O)(=O)NC[C@@H]2CCNC[C@H]2O)c1
effect: 0.2013

structure: CCOc1cccc(NC(=O)c2ccc(C)[nH]c2=O)n1
effect: 5.37

The last 5 entries again:

structure,effect
CCc1nc(CN2CCCNCC2)no1,-24.67
Cc1ccc(CNC(=O)NCC(C)(C)CC(C)O)cn1 (stereo not drawn),-19.98
COC(=O)COCC(C)=O,-27.54
Cc1ccc(F)c(S(=O)(=O)NC[C@@H]2CCNC[C@H]2O)c1,0.2013
CCOc1cccc(NC(=O)c2ccc(C)[nH]c2=O)n1,5.37

Measurements from “University of Dundee, Small-Polar-MMV Screening Library” (2021), ChEMBL document CHEMBL3988442.